According to the supplement of paper PMC11006884:
Only a part is listed here, and it is no random draw.

Sequences of proteins named here, by UniProt entry; tags and fusion partners are left off. A change or cut given only in a name is not applied to a line headed by its entry.
UniProt Q9UJX4, whole entry: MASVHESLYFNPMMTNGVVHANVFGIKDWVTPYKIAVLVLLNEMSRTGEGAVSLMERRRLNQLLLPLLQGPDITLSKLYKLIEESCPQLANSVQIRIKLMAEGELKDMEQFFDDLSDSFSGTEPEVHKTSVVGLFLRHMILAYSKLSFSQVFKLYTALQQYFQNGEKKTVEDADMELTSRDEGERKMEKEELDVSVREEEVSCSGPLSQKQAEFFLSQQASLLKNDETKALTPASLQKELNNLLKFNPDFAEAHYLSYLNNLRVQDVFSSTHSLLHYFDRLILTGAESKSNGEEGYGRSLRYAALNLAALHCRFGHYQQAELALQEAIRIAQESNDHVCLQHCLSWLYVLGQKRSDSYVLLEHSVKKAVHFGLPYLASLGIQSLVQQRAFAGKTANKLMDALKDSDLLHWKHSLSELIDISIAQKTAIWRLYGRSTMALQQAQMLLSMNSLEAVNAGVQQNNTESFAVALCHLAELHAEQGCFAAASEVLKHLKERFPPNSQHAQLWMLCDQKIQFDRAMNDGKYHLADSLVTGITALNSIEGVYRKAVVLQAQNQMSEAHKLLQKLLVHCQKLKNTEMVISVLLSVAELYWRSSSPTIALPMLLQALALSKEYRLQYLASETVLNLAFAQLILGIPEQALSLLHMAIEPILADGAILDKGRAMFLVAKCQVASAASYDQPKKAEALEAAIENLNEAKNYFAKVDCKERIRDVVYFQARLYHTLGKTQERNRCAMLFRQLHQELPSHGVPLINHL
UniProt Q9Y383: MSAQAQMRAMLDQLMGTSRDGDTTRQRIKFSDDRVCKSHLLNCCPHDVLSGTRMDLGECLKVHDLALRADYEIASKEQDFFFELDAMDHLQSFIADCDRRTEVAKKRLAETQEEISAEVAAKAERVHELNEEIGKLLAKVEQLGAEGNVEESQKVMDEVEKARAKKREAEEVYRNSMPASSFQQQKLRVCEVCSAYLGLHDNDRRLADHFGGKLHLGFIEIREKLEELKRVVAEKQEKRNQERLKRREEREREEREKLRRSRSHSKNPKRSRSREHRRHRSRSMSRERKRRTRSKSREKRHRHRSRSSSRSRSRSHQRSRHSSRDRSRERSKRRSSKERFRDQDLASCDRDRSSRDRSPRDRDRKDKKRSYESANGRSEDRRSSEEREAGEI
UniProt Q9ULI3: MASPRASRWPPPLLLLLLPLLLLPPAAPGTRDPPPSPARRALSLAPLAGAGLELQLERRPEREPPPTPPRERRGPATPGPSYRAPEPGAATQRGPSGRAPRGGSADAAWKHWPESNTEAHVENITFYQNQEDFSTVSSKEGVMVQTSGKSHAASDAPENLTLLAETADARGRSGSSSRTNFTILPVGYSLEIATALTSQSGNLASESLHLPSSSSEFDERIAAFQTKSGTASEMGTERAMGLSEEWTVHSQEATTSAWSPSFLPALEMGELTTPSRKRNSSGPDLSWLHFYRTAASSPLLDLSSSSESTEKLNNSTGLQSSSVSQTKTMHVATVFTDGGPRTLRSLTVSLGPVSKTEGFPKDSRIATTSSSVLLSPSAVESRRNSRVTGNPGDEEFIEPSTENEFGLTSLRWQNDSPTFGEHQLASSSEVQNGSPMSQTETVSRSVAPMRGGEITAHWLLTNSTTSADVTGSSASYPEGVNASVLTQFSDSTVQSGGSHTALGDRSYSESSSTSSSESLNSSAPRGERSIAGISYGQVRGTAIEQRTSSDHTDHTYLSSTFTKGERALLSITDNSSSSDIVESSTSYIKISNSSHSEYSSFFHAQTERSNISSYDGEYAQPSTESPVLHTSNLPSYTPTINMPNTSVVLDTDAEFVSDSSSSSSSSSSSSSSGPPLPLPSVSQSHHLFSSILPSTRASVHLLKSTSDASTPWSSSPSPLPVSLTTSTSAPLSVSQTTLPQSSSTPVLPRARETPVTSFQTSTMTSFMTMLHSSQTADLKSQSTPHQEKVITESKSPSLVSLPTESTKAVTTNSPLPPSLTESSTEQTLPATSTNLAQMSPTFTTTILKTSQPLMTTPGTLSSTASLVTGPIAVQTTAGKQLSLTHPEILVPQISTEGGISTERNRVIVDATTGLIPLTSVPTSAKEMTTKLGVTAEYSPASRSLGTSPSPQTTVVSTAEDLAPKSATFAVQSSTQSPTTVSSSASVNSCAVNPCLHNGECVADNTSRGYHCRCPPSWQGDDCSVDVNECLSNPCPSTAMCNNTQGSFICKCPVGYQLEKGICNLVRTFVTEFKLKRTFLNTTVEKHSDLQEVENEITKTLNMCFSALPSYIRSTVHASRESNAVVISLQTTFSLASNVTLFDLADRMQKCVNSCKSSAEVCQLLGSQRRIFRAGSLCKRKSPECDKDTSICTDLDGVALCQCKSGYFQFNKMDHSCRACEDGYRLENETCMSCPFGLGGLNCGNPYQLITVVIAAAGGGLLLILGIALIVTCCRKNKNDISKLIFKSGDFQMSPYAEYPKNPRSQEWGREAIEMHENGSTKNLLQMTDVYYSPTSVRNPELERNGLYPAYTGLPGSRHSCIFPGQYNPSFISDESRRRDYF
UniProt Q9UHR5: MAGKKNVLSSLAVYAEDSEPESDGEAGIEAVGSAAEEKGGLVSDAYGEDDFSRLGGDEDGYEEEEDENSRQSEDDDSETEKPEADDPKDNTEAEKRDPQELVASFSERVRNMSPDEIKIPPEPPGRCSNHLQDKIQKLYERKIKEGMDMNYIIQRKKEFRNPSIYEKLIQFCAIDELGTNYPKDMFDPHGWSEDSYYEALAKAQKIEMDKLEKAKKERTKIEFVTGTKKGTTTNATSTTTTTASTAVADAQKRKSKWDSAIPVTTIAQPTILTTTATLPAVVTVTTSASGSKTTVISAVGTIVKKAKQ
UniProt Q9UK61: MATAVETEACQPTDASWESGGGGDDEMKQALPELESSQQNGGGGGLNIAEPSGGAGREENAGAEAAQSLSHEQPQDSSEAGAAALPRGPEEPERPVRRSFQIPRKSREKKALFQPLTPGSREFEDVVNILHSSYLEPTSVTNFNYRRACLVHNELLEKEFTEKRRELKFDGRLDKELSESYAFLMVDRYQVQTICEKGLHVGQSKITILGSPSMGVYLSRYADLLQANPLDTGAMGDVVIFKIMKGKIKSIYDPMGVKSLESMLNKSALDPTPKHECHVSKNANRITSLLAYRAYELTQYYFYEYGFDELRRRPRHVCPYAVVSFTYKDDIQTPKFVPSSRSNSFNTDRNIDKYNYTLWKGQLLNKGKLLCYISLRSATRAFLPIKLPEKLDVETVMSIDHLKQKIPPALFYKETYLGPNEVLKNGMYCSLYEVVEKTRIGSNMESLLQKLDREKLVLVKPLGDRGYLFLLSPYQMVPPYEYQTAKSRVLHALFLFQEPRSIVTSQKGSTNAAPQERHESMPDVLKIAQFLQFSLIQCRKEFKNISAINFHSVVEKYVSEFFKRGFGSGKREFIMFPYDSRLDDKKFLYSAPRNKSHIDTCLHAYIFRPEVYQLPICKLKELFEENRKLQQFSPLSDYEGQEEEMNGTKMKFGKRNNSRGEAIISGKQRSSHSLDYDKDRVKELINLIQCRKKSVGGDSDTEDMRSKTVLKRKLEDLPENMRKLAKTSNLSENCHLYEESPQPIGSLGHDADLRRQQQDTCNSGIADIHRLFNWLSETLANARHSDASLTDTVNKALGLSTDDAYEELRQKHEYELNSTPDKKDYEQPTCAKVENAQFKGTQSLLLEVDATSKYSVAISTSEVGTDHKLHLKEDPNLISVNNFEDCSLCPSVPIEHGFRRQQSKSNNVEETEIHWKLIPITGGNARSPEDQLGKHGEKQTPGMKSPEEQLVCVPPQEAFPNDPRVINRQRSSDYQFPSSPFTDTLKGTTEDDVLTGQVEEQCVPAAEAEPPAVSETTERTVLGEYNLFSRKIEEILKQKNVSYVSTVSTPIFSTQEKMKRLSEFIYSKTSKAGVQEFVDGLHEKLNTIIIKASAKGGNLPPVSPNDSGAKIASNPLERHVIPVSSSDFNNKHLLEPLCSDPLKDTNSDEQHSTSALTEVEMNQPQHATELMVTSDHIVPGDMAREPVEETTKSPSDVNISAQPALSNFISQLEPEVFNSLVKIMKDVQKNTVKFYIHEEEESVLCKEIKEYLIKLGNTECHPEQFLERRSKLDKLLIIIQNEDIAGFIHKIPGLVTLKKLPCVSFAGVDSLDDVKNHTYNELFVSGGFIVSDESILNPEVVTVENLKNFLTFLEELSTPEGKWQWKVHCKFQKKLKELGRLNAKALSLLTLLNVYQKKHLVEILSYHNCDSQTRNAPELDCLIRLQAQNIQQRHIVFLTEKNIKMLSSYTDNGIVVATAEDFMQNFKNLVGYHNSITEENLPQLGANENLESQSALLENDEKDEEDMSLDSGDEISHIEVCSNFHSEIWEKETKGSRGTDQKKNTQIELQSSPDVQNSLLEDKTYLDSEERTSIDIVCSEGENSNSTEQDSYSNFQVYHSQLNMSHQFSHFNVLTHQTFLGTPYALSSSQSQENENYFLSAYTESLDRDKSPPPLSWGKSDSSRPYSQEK
UniProt Q9Y263: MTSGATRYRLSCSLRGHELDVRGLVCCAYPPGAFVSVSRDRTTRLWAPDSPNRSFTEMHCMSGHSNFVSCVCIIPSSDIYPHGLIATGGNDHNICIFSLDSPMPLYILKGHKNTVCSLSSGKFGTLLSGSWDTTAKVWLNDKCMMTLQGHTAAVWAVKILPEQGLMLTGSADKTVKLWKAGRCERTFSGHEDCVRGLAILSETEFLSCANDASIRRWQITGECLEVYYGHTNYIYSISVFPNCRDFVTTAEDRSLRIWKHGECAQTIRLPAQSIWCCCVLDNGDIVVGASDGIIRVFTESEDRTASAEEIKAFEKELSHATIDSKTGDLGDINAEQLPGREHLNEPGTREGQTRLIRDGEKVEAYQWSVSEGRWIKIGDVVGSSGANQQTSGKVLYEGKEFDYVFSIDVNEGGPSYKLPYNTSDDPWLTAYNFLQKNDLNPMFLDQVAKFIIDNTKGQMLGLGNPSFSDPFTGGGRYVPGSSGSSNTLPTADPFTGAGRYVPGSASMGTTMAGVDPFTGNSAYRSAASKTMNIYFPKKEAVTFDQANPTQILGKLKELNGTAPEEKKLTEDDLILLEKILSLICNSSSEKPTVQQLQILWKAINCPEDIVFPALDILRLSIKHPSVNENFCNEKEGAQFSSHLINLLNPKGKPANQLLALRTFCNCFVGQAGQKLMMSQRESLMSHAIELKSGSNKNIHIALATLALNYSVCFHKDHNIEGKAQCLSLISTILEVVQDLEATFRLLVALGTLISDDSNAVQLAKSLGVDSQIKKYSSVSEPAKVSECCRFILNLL
UniProt Q9Y2J2, whole entry: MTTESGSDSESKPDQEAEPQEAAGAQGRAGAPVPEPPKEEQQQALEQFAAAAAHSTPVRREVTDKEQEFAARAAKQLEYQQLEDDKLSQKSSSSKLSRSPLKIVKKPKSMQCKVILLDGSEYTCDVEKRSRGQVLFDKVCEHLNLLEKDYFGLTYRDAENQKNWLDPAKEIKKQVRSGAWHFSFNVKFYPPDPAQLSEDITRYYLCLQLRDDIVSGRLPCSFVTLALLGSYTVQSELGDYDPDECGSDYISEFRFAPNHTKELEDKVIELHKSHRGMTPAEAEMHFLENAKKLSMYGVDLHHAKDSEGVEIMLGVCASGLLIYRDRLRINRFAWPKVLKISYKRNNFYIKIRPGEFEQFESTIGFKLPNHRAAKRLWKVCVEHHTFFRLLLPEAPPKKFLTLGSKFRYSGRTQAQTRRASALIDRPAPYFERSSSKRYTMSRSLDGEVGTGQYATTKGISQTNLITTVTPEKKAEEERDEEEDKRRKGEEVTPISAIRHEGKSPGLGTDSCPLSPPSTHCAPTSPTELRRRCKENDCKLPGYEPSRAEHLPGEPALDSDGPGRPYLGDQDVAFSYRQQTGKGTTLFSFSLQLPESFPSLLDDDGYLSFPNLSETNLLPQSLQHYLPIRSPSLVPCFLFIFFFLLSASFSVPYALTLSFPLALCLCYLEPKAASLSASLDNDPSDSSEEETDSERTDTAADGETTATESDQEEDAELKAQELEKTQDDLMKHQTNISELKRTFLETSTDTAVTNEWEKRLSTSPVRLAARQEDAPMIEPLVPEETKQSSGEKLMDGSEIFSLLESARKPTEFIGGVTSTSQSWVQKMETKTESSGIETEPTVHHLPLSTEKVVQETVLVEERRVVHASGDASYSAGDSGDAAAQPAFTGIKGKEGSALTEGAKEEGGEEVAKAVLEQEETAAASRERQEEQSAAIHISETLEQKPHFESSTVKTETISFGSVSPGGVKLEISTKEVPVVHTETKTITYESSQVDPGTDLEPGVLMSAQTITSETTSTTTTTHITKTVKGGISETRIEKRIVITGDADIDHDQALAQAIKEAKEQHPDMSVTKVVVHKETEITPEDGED

These targets were tested with COC(=O)C#Cc1ccccc1 [methyl 3-phenylpropiolate] (assay: log2 ratio of iodoacetamide-alkyne labeling of the cysteine site, DMSO over compound (competition); higher = stronger covalent engagement of the cysteine by the compound, active = 1 or more). Conditions: 500 µM; treatment time 1 h; system: HEK293T cell lysate.
Outline: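 After 1 h at ambient temperature with vehicle or electrophile (500 µM), HEK293T lysate (2 mg/mL) was labelled for 1 h with iodoacetamide alkyne and clicked to sCIP-TMT reagents. Pooled samples were trypsin-digested overnight at 37 °C, streptavidin-enriched, acid-eluted and analysed by Orbitrap Eclipse LC-MS/MS with FAIMS, then quantified in FragPipe over three replicates with duplicate channels. A cysteine's log2 competition ratio is its mean control-channel over mean compound-channel reporter intensity. Cysteines quantified in only one replicate were not included.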
RUVBL1 C141 (UniProt Q9Y265) was tested, and the “log2 ratio of iodoacetamide-alkyne labeling” value (“log2 ratio” for short) was inactive: 0.0254.
For CPSF3 C223 (UniProt Q9UKF6), the “log2 ratio” value was inactive: -0.103.
ANAPC5 C86 (UniProt Q9UJX4) was tested, and the “log2 ratio” value was inactive: 0.467.
In the case of LUC7L2 C59 (UniProt Q9Y383), the “log2 ratio” value is reported as inactive: -0.0608.
In the case of SCML2 C559 (UniProt Q9UQR0), the “log2 ratio” value is reported as inactive: 0.722.
With HEG1 C1360 (UniProt Q9ULI3) the “log2 ratio” value was active: 1.36.
For VPS51 C269 (UniProt Q9UID3), the “log2 ratio” value was inactive: 0.563.
With GTF3C4 C814 (UniProt Q9UKN8) the “log2 ratio” value was inactive: 0.219.
In the case of SAP30BP C172 (UniProt Q9UHR5), the “log2 ratio” value is reported as inactive: 0.146.
With VPS28 C96 (UniProt Q9UK41) the “log2 ratio” value was inactive: 0.12.
SAMHD1 C80 (UniProt Q9Y3Z3) was tested, and the “log2 ratio” value was inactive: 0.175.
For UniProt Q9UK61_C734, the “log2 ratio” value was inactive: 0.0144.
For PLAA C605 (UniProt Q9Y263), the “log2 ratio” value was inactive: 0.176.
With PRPF19 C298 (UniProt Q9UMS4) the “log2 ratio” value was inactive: 0.134.
HECTD1 C1893 (UniProt Q9ULT8) was tested, and the “log2 ratio” value was inactive: -0.11.
For HECTD1 C436 (UniProt Q9ULT8), the “log2 ratio” value was inactive: -0.0217.
SLC25A13 C503 (UniProt Q9UJS0) was tested, and the “log2 ratio” value was inactive: 0.184.
HERC5 C468 (UniProt Q9UII4) was tested, and the “log2 ratio” value was inactive: 0.344.
With MRPS16 C41 (UniProt Q9Y3D3) the “log2 ratio” value was inactive: 0.935.
With EPB41L3 C140 (UniProt Q9Y2J2) the “log2 ratio” value was inactive: -0.00819.
In the case of MACF1 C7344 (UniProt Q9UPN3), the “log2 ratio” value is reported as inactive: -0.0093.
